According to patent publication US20020114804A1, “A METHOD OF TREATING INFECTION OF SUTURES AND PROSTHETIC DEVICES” (priority 1996, published 2002):

Test system: Matrigel-coated filters
Experiment: Binding of radiolabeled tenascin to Matrigel-coated filters
Method: Chick tenascin was radiolabeled using chloramine T (67), and mixed with unlabeled tenascin at a 1:100 protein ratio. 250 μl of PBS containing varying amounts of this mixture was added to inserts coated with Matrigel or collagen I. The inserts were incubated at room temperature for 4 h at 37° C. in a humidified 95%air/5% CO2 atmosphere and washed with PBS. The filters were cut from the inserts with a scalpel, and assayed for 125I in a Beckman gamma counter.

With “chick brain tenascin: tenascin purified from 14-day embryonic chick brains” the “125I-labeled tenascin eluted from the filters” value (4-6 h incubation at 37° C.) was “less than 1%”, the “Tenascin remained bound to Matrigel-coated filter” value (4-6 h incubation at 37° C.) was ~99% and the “Tenascin adsorbed per filter” value (at near plateau binding) was “about 0.2 μg”.
